Structures can show the parent of a compound that is named as a salt.
Assay: Measured concentrations of test compounds in test solutions (Cw)
Conditions: test solution, exposure up to 120 hpf

Row | Structure (SMILES) | Time-weighted mean measured Cw as % of the nominal concentration [%] | Time-weighted mean of measured concentration (Cw) [mg/L]
1 | Cn1c(=O)c2c(ncn2C)n(C)c1=O [caffeine] | 102 | 10.2
2 | O=C(O)Cc1ccccc1Nc1c(Cl)cccc1Cl [diclofenac, diclofenac sodium salt] | 107 | 3.41
3 | C[C@]12CC[C@H]3[C@@H](CCC4=CC(=O)CC[C@@]43C)[C@@H]1CC[C@@H]2O [testosterone] | 93.3 | 2.80

Source: paper PMC7763843, “Cytochrome P450 Expression and Chemical Metabolic Activity before Full Liver Development in Zebrafish” (Pharmaceuticals, 2020)
